{
  "source": "paper PMC8534408",
  "binders": {"B1": {"name": "MTMR14 (protein, UniProt Q8NCE2 1-650)", "chain": "MAGARAAAAAASAGSSASSGNQPPQELGLGELLEEFSRTQYRAKDGSGTGGSKVERIEKRCLELFGRDYCFSVIPNTNGDICGHYPRHIVFLEYESSEKEKDTFESTVQVSKLQDLIHRSKMARCRGRFVCPVILFKGKHICRSATLAGWGELYGRSGYNYFFSGGADDAWADVEDVTEEDCALRSGDTHLFDKVRGYDIKLLRYLSVKYICDLMVENKKVKFGMNVTSSEKVDKAQRYADFTLLSIPYPGCEFFKEYKDRDYMAEGLIFNWKQDYVDAPLSIPDFLTHSLNIDWSQYQCWDLVQQTQNYLKLLLSLVNSDDDSGLLVHCISGWDRTPLFISLLRLSLWADGLIHTSLKPTEILYLTVAYDWFLFGHMLVDRLSKGEEIFFFCFNFLKHITSEEFSALKTQRRKSLPARDGGFTLEDICMLRRKDRGSTTSLGSDFSLVMESSPGATGSFTYEAVELVPAGAPTQAAWRKSHSSSPQSVLWNRPQPSEDRLPSQQGLAEARSSSSSSSNHSDNFFRMGSSPLEVPKPRSVDHPLPGSSLSTDYGSWQMVTGCGSIQERAVLHTDSSLPFSFPDELPNSCLLAALSDRETRLQEVRSAFLAAYSSTVGLRAVAPSPSGAIGGLLEQFARGVGLRSISSNAL"}, "B2": {"name": "SH3GLB1 (protein, UniProt Q9Y371 1-365)", "chain": "MNIMDFNVKKLAADAGTFLSRAVQFTEEKLGQAEKTELDAHLENLLSKAECTKIWTEKIMKQTEVLLQPNPNARIEEFVYEKLDRKAPSRINNPELLGQYMIDAGTEFGPGTAYGNALIKCGETQKRIGTADRELIQTSALNFLTPLRNFIEGDYKTIAKERKLLQNKRLDLDAAKTRLKKAKAAETRNSSEQELRITQSEFDRQAEITRLLLEGISSTHAHHLRCLNDFVEAQMTYYAQCYQYMLDLQKQLGSFPSNYLSNNNQTSVTPVPSVLPNAIGSSAMASTSGLVITSPSNLSDLKECSGSRKARVLYDYDAANSTELSLLADEVITVFSVVGMDSDWLMGERGNQKGKVPITYLELLN"}},
  "key": {"[1]": {"target": "SH.SZT2WT (STREP-HA tagged seizure threshold 2, wild type) (human)", "experiment": "condition: only cells restimulated with amino acids and growth factors for 20 min; affinity purification with mass spectrometry; as a1, SH.SZT2WT eluates of cells restimulated with amino acids and growth factors for 20 min (STI) set against starved cells (STA); p-value <= 0.05 and fold-change >= …"}, "[2]": {"target": "SH.SZT2WT (STREP-HA tagged seizure threshold 2, wild type) (human)", "experiment": "affinity purification with mass spectrometry; SH.SZT2WT or SH.GFP bait from cleared lysate of tetracycline-induced HEK293 Flp-In T-Rex cells held on Strep-Tactin Sepharose, 1 h, 4 °C, 50 mM HEPES pH 8.0, 150 mM NaCl, 5 mM EDTA, 0.5% NP-40, 50 mM NaF; eluted with 2.5 mM D-biotin; LC-MS/MS; cells starved of amino acids and growth factors for 1 h (STA) or restimulated for 20 min (STI); hits: p-value <= 0.05 and fold-change >= 5 over the GFP control"}},
  "note": "Results are given in words; binding and its absence hold for the method and conditions named. In cells and extracts the contact can be indirect. These calls come from enrichment with a bait or labelling near it, and not all partners need be listed. For some of these results: No binding means not detected with the bait.",
  "data": [
    {"binder": "B1", "values": [
      {"measurement": "binding", "setting": "[1]", "result": "no binding"},
      {"measurement": "binding", "setting": "[2]", "result": "binds"}
    ]},
    {"binder": "B2", "values": [
      {"measurement": "binding", "setting": "[1]", "result": "no binding"},
      {"measurement": "binding", "setting": "[2]", "result": "binds"}
    ]}
  ]
}
